Results are given in words; binding and its absence hold for the method and conditions named. In cells and extracts the contact can be indirect. Some binding calls cover weakened binding; strength is not graded here.

Sequences of proteins named here, by UniProt entry; tags and fusion partners are left off. A change or cut given only in a name is not applied to a line headed by its entry. A line that says so, or that is headed by a name, gives the form on record, which may keep a tag or linker.
UniProt Q9HCE7: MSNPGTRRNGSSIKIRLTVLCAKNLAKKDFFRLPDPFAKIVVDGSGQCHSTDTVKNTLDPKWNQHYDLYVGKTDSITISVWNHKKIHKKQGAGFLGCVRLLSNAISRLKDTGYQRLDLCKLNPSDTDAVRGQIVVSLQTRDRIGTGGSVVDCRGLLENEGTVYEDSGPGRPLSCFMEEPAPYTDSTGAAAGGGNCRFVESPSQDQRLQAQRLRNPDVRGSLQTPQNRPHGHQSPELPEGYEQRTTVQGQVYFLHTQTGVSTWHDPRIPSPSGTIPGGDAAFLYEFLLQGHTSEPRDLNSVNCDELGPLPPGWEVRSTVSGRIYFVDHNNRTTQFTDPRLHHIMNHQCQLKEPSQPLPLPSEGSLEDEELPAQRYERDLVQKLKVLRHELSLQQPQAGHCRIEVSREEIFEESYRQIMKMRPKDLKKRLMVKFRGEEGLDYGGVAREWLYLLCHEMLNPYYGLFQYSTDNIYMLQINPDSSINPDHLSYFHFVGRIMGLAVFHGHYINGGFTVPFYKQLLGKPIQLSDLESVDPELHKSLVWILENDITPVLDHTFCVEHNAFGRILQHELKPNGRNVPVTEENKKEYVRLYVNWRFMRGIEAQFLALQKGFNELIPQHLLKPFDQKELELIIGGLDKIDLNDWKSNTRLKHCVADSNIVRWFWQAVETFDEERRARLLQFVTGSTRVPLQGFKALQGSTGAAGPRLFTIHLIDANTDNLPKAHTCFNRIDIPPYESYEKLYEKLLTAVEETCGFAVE
HA-Smurf1 (Q9HCE7-2, form named): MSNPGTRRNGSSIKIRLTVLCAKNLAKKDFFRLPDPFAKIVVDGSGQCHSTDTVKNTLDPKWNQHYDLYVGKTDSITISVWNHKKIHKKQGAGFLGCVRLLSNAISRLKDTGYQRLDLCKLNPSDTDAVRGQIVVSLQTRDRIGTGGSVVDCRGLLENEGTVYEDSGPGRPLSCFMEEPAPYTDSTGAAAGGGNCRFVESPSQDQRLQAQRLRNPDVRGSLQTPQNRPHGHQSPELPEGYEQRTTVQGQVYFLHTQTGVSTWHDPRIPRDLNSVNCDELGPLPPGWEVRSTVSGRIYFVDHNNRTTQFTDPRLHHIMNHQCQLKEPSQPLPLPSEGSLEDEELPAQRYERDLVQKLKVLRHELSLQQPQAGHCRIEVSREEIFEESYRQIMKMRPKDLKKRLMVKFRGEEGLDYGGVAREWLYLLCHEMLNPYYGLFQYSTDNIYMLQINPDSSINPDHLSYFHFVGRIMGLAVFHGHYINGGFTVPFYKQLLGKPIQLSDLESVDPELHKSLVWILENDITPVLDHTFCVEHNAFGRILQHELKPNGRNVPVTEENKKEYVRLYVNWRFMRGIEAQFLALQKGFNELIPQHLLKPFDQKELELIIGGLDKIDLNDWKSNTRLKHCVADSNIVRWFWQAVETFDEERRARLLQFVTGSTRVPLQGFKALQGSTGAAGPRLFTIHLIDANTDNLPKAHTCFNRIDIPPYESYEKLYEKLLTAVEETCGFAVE

The target of assay [1] is GFP-p62 (UniProt Q13501). Description: co-IP; 293T (text: LN229) overexpressing GFP-p62 and Flag-tagged Smurf1 constructs; lysates immunoprecipitated with anti-GFP antibody, blots anti-GFP and anti-Flag.
For assay [2], the target named is HA-Smurf1 (UniProt Q9HCE7). Kind of assay: co-IP; 293T (text: LN229) treated with control siRNA, transfected with HA or HA-Smurf1; immunoprecipitated with HA antibody, blots anti-p62, anti-NBR1, anti-HA.
Assay [3] has as its target endogenous Smurf1 (SMAD Specific E3 Ubiquitin Protein Ligase 1) (human (endogenous in 293T)) (UniProt Q9HCE7). Description: co-IP; 293T lysates immunoprecipitated with IgG or anti-Smurf1 antibody and protein G agarose, endogenous proteins, blots for p62, LC3B, Smurf1; untreated (Fig. 1E) or MG132-treated cells (Fig. 4D), si-Control or si-p62 (Fig. 4F); lysis buffer 50 mM Tris pH 8.0, 150 mM NaCl, 1% NP40, 0.5% sodium deoxycholate.

As for “Flag-Smurf1 (from UniProt Q9HCE7-2 1-731)”, the binding result in assay [1] is given as “binds”. As for “endogenous p62 (SQSTM1, Sequestosome-1) (from UniProt Q13501 1-440)”, the binding result in assay [2] and in assay [3] was “binds” each time.

Values taken from PMC9945626.
